# According to the supplement of paper PMC5407854, “Inhibitor of ppGalNAc-T3-mediated O-glycosylation blocks cancer cell invasiveness and lowers FGF23 levels” (eLife, 2017):
# In all, about 1,700 compounds were measured (“T3 sensor activation Q score (MG/GFP ratio z-score vs DMSO controls)”: median about 0.25, highest 2% from about 1.9 on). This is one part of the list.
# Test system: ppGalNAc-T3 sensor
# Experiment: T3 sensor activation Q score (MG/GFP ratio z-score vs DMSO controls) (SD units); higher = more sensor activation (inhibition of ppGalNAc-T3 glycosylation)
# Details: HEK293 sensor cells; 10 µM; 6 h
# Experimental: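 Cells were treated with compound at 10 uM for 6 h, then MG/GFP ratio was read by flow cytometry (10,000 cells per well, duplicate wells). Q = (R - R_neg)/SD_neg relative to DMSO vehicle controls; the signal rises when the glycosyltransferase is inhibited.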
row,Compound,T3 sensor activation Q score
1,O=C1c2ccccc2C(=O)c2c1cccc2-n1nnc2ccccc21,1.65
2,C[C@]12CC[C@H](O)CC1=CC[C@@H]1[C@@H]2CC[C@]2(C)c3[nH]ncc3C[C@@H]12,0.6
3,Cc1ccc(NC(=O)Nc2cccnc2)cc1NC(=O)Nc1cccnc1,0.95
4,C#CCOCC1CN(c2ccccc2)C(=O)O1 (stereo unspecified),1.9
5,CC(=C/c1ccccc1)/C=C1/NC(=S)NC1=O,0.6
6,O=C1c2ccccc2C(=O)C1c1ccccn1,-1
7,Cc1ccc(NC(=O)NNC(=O)CSC2CCc3ccccc32)c(C)c1 (stereo unspecified),-0.55
8,CC1(C)OC2C(CO)OC(n3cnc4c(=S)nc[nH]c43)C2O1 (stereo unspecified),0.4
9,COc1ccc(NC(=O)c2cc3ccc4c5ccccc5[nH]c4c3cc2O)cc1,-0.3
10,C=CCSc1n[nH]c(-c2cccs2)n1,0.35
11,c1ccc2c(c1)-c1cccc3cncc-2c13,0.5
12,CC(C)(C)N1CCC1CN (stereo unspecified),1.8
13,N#CC1=CC2CN(Cc3ccccc3)C1C1C(=O)N(c3ccccc3)C(=O)C21 (stereo unspecified),0.45
14,O=C(c1cccnc1)N1CCN(c2ccccc2Cl)CC1,-0.05
15,S=C1N(c2ccccc2)CN(C2CCCCC2)CN1c1ccccc1,0.75
16,NC(=O)C(=Cc1ccncc1)c1cccc2ccccc12,-1.2
17,CO[C@H]1C[C@@H]2CC[C@@H](C)[C@@](O)(O2)C(=O)C(=O)N2CCCC[C@H]2C(=O)O[C@H]([C@H](C)C[C@@H]2CC[C@@H](O)[C@H](OC)C2)CC(=O)[C@H](C)/C=C(\C)[C@@H](O)[C@@H](OC)C(=O)[C@H](C)C[C@H](C)/C=C/C=C/C=C/1C,0
18,OC(c1ccccc1)(c1ccccc1)c1nccn1-c1ccccc1,0
19,CN(C)S(=O)(=O)c1ccccc1N=C=S,-1.15
20,NCCN1CCNCC1,1.85
21,Cc1nc2ccccc2nc1N1CCCC1,0
22,COc1cc(C(=O)OC(C)CN2CCOCC2)cc(OC)c1OC (stereo unspecified),1.25
23,O=S(=O)(O)c1ccc(N=Nc2ccccc2)cc1,1
24,Cc1ccc(S(=O)(=O)NC(=O)Nc2nccs2)cc1,0.2
25,CC1=CN2C(c3cccc([N+](=O)[O-])c3)=NON(c3ccc(C)cn3)C2C=C1 (stereo unspecified),0.45

row,Compound,T3 sensor activation Q score
1,c1ccc(-c2cc3ccccc3[nH]2)cc1,0.45
2,COc1ccc(C(=O)O)nc1C,-1.45
3,Nc1ccc(N=Nc2ccccc2Cl)c(N)n1,1.7
4,O=c1c(-c2ccc(O)cc2)coc2cc(O)cc(O)c12,-0.45
5,Cc1cc(NC(=O)c2ccccc2)nc(C)n1,0.05
6,COc1ccccc1C1OC2=C(Nc3ccc([N+](=O)[O-])cc3N2)C1=O (stereo unspecified),0.85
7,COc1ccc(/C(C#N)=C/c2cccnc2)cc1,0.15
8,CCNc1nn2ccccc2c1C=C(C#N)C(=O)OCC,1.55
9,O=C(Cn1ccc(=O)[nH]c1=O)Nc1nccs1,0.2
10,FC(F)(F)c1nc2nc(Cl)c(Cl)nc2n1CCCN1CCOCC1,1.75
11,Nc1ccc(NC(=S)Nc2ccccc2)cc1,1.8
12,COc1cc2c(c3c1c(=O)c1cccc(F)c1n3C)C=CC(C)(C)O2,-1.6
13,Cn1[nH]cc(/C=N/C(N)=O)c1=O,-0.85
14,O=C(O)CCNC1CCCCC1,-1.8
15,Nc1ccc2c(c1)Cc1cc(Cl)c(Cl)cc1-2,-0.65
16,O=C(Nc1csnn1)c1csnn1,0.95
17,CC(C)(C)CC(C)(C)N1CNC(=S)NC1,1.1
18,CCc1c2c(nc3ccc(OC(=O)N4CCC(N5CCCCC5)CC4)cc13)-c1cc3c(c(=O)n1C2)COC(=O)[C@]3(O)CC,-1
19,Cc1cn(C2CC(O)C(CO)O2)c(=O)n(Cc2ccccc2)c1=O (stereo unspecified),0.1
20,CC(C)(C)n1nc(C2CC2)cc1NC(=O)Nc1ccc(Cl)cc1,0.7
21,CCC1=C[C@@H]2CN(C1)Cc1c([nH]c3ccccc13)[C@@](C(=O)OC)(c1cc3c(cc1OC)N(C)[C@H]1[C@@](O)(C(=O)OC)[C@H](OC(C)=O)[C@]4(CC)C=CCN5CC[C@]31[C@@H]54)C2,0.7
22,CSc1nc(=S)c2[nH]c(=S)[nH]c2[nH]1,0.35
23,Cc1cnc2cc(Cl)ccc2c1SCC(=O)O,0.5
24,S=c1c2[nH]cnc2ncn1CCSc1ncnc2nc[nH]c12,1.2
25,NC(=O)c1ccccc1NC(=O)COc1ccc(Cl)cc1,0.55

# For reference, some entries already given.
row,Compound,T3 sensor activation Q score
11,Nc1ccc(NC(=S)Nc2ccccc2)cc1,1.8
12,COc1cc2c(c3c1c(=O)c1cccc(F)c1n3C)C=CC(C)(C)O2,-1.6

# (continued)

row,Compound,T3 sensor activation Q score
1,COC1C(=O)CCC2(CO2)C1(O)C1(C)OC1CC=C(C)C (stereo unspecified),-1.6
2,O=C(NC(=S)Nc1cc(Cl)ccc1O)c1cccc(Br)c1,1.4
3,CC1(c2ccccc2)O[C@@H]2C[C@H]3[C@@H]4CCC5=CC(=O)C=C[C@]5(C)[C@@]4(F)[C@@H](O)C[C@]3(C)[C@]2(C(=O)CO)O1 (stereo partly specified),3.35
4,Cc1cc2c(cc1C)N(C(=O)CCl)CC(=O)N2,-0.8
5,CC(C)CC(NC(=O)OCc1ccccc1)C(=O)NC(Cc1c[nH]c2ccccc12)C(=O)O (stereo unspecified),-0.85
6,N.N.O=C([O-])C1(C(=O)[O-])CCC1.[Pt+2],0.65
7,NCC(=O)c1cccc2ccc[n+]([O-])c12,0.6
8,COc1ccccc1/C=C1\Cc2ccccc2C1=O,-0.95
9,Cc1cc2c(cc1C)NC1=C(N2)OC(c2cccc(O)c2)C1=O (stereo unspecified),0.55
10,O=c1n(CC2CO2)c(=O)n(CC2CO2)c(=O)n1CC1CO1 (stereo unspecified),0.8
11,O=[N+]([O-])C1C(c2ccccc2)C12c1ccccc1-c1ccccc12 (stereo unspecified),3.55
12,CC(C)(C(N)=O)c1ccccc1,1.3
13,NC(=NOC(=O)c1ccccc1)C(Cc1ccccc1)C(=O)NOC(=O)c1ccccc1 (stereo unspecified),-1.75
14,CSc1nsc(NN)n1,-0.25
15,O=[N+]([O-])c1ccc(NN=C(c2ccccc2)c2ccccc2)nc1,-0.4
16,O=C(Nc1ccc(Cl)c(Cl)c1)Nc1ccccc1O,-1.1
17,O=C(O)C1CCC(=O)N1C(=O)OCc1ccccc1 (stereo unspecified),0.1
18,OCC1(CO)COC2(CCCC2)N1,0.35
19,N#C/C(=C\c1ccc(C#N)cc1)C(=O)c1ccccc1,0.75
20,CC(NC(=O)c1ccc(Cl)c(Cl)c1)c1ccc(-c2ccccc2)cc1 (stereo unspecified),0.25
21,Cc1ccc(C)c(N2CCN(c3ccncc3N)CC2)c1,-1.25
22,CNNCc1ccc(C(=O)NC(C)C)cc1,1.85
23,CC1=CC(=O)C(C(C)=Nc2ccccc2Cl)C(=O)O1 (stereo unspecified),1.35
24,O=c1[nH]c(=O)n([C@H]2C[C@H](O)[C@@H](CO)O2)cc1F,0.9
25,NS(=O)(=O)c1ccc(Cl)cc1[N+](=O)[O-],-0.35

row,Compound,T3 sensor activation Q score
1,CCn1c2ccccc2c2cc(NC(=O)Nc3ccc([N+](=O)[O-])cc3C)ccc21,-0.65
2,Nc1ncnc(N2CCOCC2)n1,0.45
3,Nc1cc(=O)[nH]c2ncnn12,-0.15
4,O=C1CCC(NC(=O)c2ccccc2)C(=O)N1 (stereo unspecified),-0.05
5,N#C/C(=C\c1c[nH]c2ccccc12)C(N)=O,1.4
6,CCOC(=O)/C(C#N)=C1\SS/C(=C(/C#N)C(=O)OCC)S1,0.55
7,Nc1ccc(NC(=O)Nc2ccc(N)cc2)cc1,-0.15
8,O=C(Nc1cccc2ccccc12)c1ccccc1,-0.45
9,CSc1nc(N)c(C(=O)Nc2ccc([N+](=O)[O-])cc2)s1,1.45
10,O=C1COc2c1ccc(O)c2O,0.8
11,CN(C)c1nc(=Nc2cccc(Cl)c2)ss1,0.4
12,Nc1ncncc1-c1ccc2ccccc2c1,0.45
13,CN(C)c1ncnc2c1ncn2-c1ccccc1,-0.6
14,CC(=O)Oc1ccc(OC(C)=O)c2c1CC1(C)OC1(C)C2 (stereo unspecified),1.55
15,Cc1[nH]c(=S)[nH]c(=O)c1Cc1c(O)ccc2ccccc12,0.25
16,CCN1CCCCC(=NO)C(=NO)CCCC1,0.8
17,NC(=O)N/N=C1\CC2CC1C1C=CCC21 (stereo unspecified),0.75
18,COc1cc(NC(=O)CCl)ccc(=O)c1,1.75
19,O=C(OCC(O)COC(=O)c1cccnc1)c1cccnc1,0.25
20,O=C(O)c1ccccc1-c1ccccc1C(=O)Nc1ccc2c(c1)[nH]c(=O)c1ccccc12,-0.3
21,NC(N)=N/N=C\c1c(Cl)cccc1Cl,-1
22,c1ccc(-c2nc(-c3nccc4ccccc34)oc2-c2ccccc2)cc1,0.35
23,CCOC(=O)C(=O)C1C(=O)Nc2ccccc21 (stereo unspecified),1.65
24,CC(C)C[C@H](NC(=O)[C@H](CCc1ccccc1)NC(=O)CN1CCOCC1)C(=O)N[C@@H](Cc1ccccc1)C(=O)N[C@@H](CC(C)C)C(=O)[C@@]1(C)CO1,-0.4
25,O=[N+]([O-])c1ccccc1/C=C/C=N/N=C/c1ccccc1O,0.9

# 2 compounds picked at random from those above, as already listed:
row,Compound,T3 sensor activation Q score
3,Nc1cc(=O)[nH]c2ncnn12,-0.15
20,O=C(O)c1ccccc1-c1ccccc1C(=O)Nc1ccc2c(c1)[nH]c(=O)c1ccccc12,-0.3

# (listing goes on)

row,Compound,T3 sensor activation Q score
1,O=C(O)C(Cc1ccccc1N(CCO)CCO)N1C(=O)c2ccccc2C1=O (stereo unspecified),-0.35
2,O=[N+]([O-])c1cccc(-c2nc3ccccc3s/c2=N/O)c1,1.3
3,O=C(O)c1c[nH]n2c(=S)ncnc12,-1.05
4,Nc1ccc(Oc2ccc(N)c([N+](=O)[O-])c2)cc1[N+](=O)[O-],1.15
5,Cc1ccc(NC(=S)NC(=O)c2ccccc2)cc1NC(=S)NC(=O)c1ccccc1,-0.35
6,O=C(c1cccnc1)C1Cc2ccccc2C1=O (stereo unspecified),1.6
7,Nc1ccc(N=Nc2ccccc2)c2ccccc12,-1.25
8,Cc1nc(N)nc(Nc2ccc(C#N)cc2)c1Br,-0.95
9,CN(C)S(=O)(=O)N1C(=O)c2ccccc2C1=O,0.9
10,CCCCN1C(=O)CC(C(=O)OCC)=C1C,-1.5
11,CCN(CC)Cc1cc2[nH]c3c4ccc(Cl)cc4ncc3c2cc1OC,1.9
12,O=C1c2ccccc2C(=O)N1c1ncn[nH]1,-1.75
13,CSc1ccc(NC(=O)Nc2cc(C)ccn2)cc1,-1.2
14,Cc1cc(NC(=O)Nc2cccc3ccccc23)no1,-0.6
15,CCOC(=O)Nc1csnn1,-0.7
16,O=C(Nc1ccc(Nc2ccncc2)cc1)c1ccc([N+](=O)[O-])cc1,0.75
17,Cc1cc(=O)c2cc(C(=O)c3ccccc3)ccc2[nH]1,0.05
18,COc1ccc(NC2=CC(=S)NC(C)(C)C2)cc1,1
19,COc1ccc(Nc2cc(Cl)ccc2C(=O)O)cn1,1.4
20,COc1cc(NC(C)=O)c2ncccc2c1NC(C)=O,1.2
21,CCOC(=O)c1ccc2c(c1)NCc1cccc(OC)c1O2,1.15

# Four entries out of the list, ordered by formula weight, descending.
row,Compound,T3 sensor activation Q score
19,COc1ccc(Nc2cc(Cl)ccc2C(=O)O)cn1,1.4
13,CSc1ccc(NC(=O)Nc2cc(C)ccn2)cc1,-1.2
12,O=C1c2ccccc2C(=O)N1c1ncn[nH]1,-1.75
3,O=C(O)c1c[nH]n2c(=S)ncnc12,-1.05
